Measured values published in article PMC6099276.
These are yes or no findings as the source states them, for the method shown. Binding seen in cells or lysates may run through a third protein. These calls come from enrichment with a bait or labelling near it, and not all partners need be listed. Tags and fused reporters may be left off the sequences shown. Values belong to the binder of their own block, whether it stands above or below them.

Legend:
[1] = target: T1, AtVPS30-FLAG (AtVPS30 fused with three FLAG tags) (Arabidopsis thaliana) (UniProt Q9M367); assay: affinity purification with mass spectrometry; Co-IP/MS from about 3 g leaf tissue of 20-d-old 35S-USL1-MYC or 35S-VPS30-FLAG transgenic Arabidopsis; purified proteins separated by SDS-PAGE, whole lane digested with trypsin, LC-MS/MS
T1 sequence: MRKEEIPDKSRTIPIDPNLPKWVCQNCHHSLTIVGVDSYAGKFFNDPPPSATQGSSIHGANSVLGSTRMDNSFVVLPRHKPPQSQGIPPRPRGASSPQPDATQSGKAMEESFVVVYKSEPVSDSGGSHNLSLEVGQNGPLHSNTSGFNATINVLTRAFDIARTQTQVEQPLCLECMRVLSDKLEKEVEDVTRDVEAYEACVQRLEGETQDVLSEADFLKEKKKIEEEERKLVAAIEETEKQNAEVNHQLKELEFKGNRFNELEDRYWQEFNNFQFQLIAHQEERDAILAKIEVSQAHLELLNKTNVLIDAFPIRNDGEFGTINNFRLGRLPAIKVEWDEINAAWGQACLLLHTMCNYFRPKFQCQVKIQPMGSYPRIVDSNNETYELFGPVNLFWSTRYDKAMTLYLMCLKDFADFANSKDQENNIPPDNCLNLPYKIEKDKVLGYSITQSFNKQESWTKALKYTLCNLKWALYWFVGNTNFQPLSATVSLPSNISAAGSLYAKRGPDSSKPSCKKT

[2] = target: T2, USL1-MYC (U… AND SMALL LEAVES 1 fused with six MYC tags) (Arabidopsis thaliana) (UniProt Q8S9J3); assay: as above
T2 sequence: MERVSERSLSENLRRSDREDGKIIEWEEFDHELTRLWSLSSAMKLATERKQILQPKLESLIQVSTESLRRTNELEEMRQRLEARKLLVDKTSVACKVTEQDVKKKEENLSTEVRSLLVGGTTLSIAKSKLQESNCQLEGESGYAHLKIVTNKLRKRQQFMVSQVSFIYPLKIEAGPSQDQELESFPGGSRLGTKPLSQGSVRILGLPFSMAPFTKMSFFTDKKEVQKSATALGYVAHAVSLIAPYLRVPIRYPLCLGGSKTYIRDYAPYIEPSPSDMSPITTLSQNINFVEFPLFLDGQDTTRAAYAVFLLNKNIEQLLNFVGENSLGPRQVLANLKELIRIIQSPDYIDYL

- binding [1]: binds
- binding [2]: binds
B1: AtVPS15 (protein, UniProt Q9M0E5 1-1494)
chain: MGNKIARTTQVSATEYYLHDLPSSYNLVLKEVLGRGRFLKSIQCKHDEGLVVVKVYFKRGDSIDLREYERRLVKIKDVFLSLEHPHVWPFQFWQETDKAAYLVRQYFYSNLHDRLSTRPFLSLVEKKWLAFQLLLAVKQCHEKDICHGDIKCENVLLTSWNWLYLADFASFKPTYIPYDDPSDFSFFFDTRGQRLCYLAPERFYEHGGETQVAQDAPLKPSMDIFAVGCVIAELFLEGQPLFELAQLLAYRRGQHDPSQHLEKIPDPGIRKMILHMIQLEPEARLSAEDYLQNYVGVVFPNYFSPFLHTLYCCWNPLPSDMRVATCQGIFQEILKKMMENKSGDEIGVDSPVTSNPMNASTVQETFANHKLNSSKDLIRNTVNSKDEIFYSISDALKKNRHPFLKKITMDDLGTLMSLYDSRSDTYGTPFLPVEGNMRCEGMVLIASMLCSCIRNIKLPHLRREAILLLRSCSLYIDDDDRLQRVLPYVVALLSDPTAIVRCAAMETLCDILPLVRDFPPSDAKIFPEYIFPMLSMLPEDTEESVRICYASNIAKLALTAYGFLIHSFQLSDVGVLNELNSQQISTTPASETPSHLQKANGNAQLQQLRKTIAEVVQELVMGPKQTPNVRRALLQDIGELCFFFGQRQSNDFLLPILPAFLNDRDEQLRSVFFEKIVYVCFFVGQRSVEEYLLPYIDQALSDQTEAVIVNALECLSTLCKSSFLRKRALLQMIECVYPLLCYPSQWVRRAVVTFIAASSECLGAVDSYAFIAPVIRSYLSRLPASIASEEGLLSCLKPPVTREVVYRIFEKTRNPEFMAKQRKMWYSSSPQSKDWESVDLFDKDAGELNSVECRAEQKQSVEGKKQIKSASKQPEVQGKYAEKDAKLRIPRNPRPNASNTVELRDPVYPEKLQFSGFMAPYVSGANSFIEPENIPLYSFSMDKRAATNPPVASESSLQMNSLGMGSLSVPWMDSMSKSFNLASSVPVPKLISGSFHVGTNPKQFYRVVHEPESRENDQISSAISKFQDLGVSSSSKSASVTSEDASSPADLVGEPSLSRTSVPDSGWKPRGVLVAHLQEHRSAVNDIATSSDHSFFVSASDDSTVKVWDSRKLEKDISFRSRLTYHLEGSRGMCTTMLRNSTQVVVGASDGVIHMFSIDHISRGLGNVVEKYSGIVDIKKKDVKEGALVSLLNYTADSLSGPMVMYSTQNCGIHLWDTRSDLDAWTLKANPEEGYVSSLVTSPCGNWFVSGSSRGVLTLWDLRFRVPVNSWQYPIICPIEKMCLCFLPPSVSVSTTMKPLIYVAAGCNEVSLWNAEGGSCHQVLRVANYENETDVSEFQWKLPSNKVNPKPNHRQNMSSKYRIEELNEPPPRLPGIRSLLPLPGGDLLTGGTDLKIRRWDYSSPERSYCICGPSLKGVGNDDFYELKTNTGVQFVQETKRRPLATKLTAKAVLAAAATDTAGCHRDSVQSLASVKLNQRLLISSSRDGAIKVWK

- binding [1]: binds
B2: USL1 (U… AND SMALL LEAVES 1) (protein, UniProt Q8S9J3 1-352)
chain: T2 sequence

- binding [2]: binds
B3: AtVPS30 (protein, UniProt Q9M367 1-517)
chain: T1 sequence
